Measured values as given in patent US20070161628A1, “Phosphodiesterase inhibitors” (GREENPHARMA, priority 2004, published 2007).
Some entries share one result that the patent states for a list of compounds.

Test system: motor neurons
Test: Neuroprotective effect, peroxynitrite-induced motor neuron apoptosis
Assay type: cell-based
Details: 1 μM

## CCOc1cc2c(cc1OCC)[C@H](CC)C(C)=NN=C2c1ccc(OC)c(OC)c1 [S-etofisopam, 5S-(3,4-dimethoxyphenyl)-5-ethyl-4-methyl-7,8-diethoxy-5H-2,3-benzodiazepine]
  protection of the neurons: more than 50%

## CC[C@@H]1C(C)=NN=C(c2ccc(OC)c(OC)c2)c2cc(OC)c(OC)cc21 [S-tofisopam, (5S)-1-(3,4-dimethoxyphenyl)-5-ethyl-7,8-dimethoxy-4-methyl-5H-2,3-benzodiazepine]
  protection of the neurons: more than 50%
